Source: patent publication US5770430
At least one result comes from cells or an extract, where the contact may be indirect.

Chains of the proteins cited; added tags and fusions are not shown. Residues count along the entry.
UniProt P08047, 2-785: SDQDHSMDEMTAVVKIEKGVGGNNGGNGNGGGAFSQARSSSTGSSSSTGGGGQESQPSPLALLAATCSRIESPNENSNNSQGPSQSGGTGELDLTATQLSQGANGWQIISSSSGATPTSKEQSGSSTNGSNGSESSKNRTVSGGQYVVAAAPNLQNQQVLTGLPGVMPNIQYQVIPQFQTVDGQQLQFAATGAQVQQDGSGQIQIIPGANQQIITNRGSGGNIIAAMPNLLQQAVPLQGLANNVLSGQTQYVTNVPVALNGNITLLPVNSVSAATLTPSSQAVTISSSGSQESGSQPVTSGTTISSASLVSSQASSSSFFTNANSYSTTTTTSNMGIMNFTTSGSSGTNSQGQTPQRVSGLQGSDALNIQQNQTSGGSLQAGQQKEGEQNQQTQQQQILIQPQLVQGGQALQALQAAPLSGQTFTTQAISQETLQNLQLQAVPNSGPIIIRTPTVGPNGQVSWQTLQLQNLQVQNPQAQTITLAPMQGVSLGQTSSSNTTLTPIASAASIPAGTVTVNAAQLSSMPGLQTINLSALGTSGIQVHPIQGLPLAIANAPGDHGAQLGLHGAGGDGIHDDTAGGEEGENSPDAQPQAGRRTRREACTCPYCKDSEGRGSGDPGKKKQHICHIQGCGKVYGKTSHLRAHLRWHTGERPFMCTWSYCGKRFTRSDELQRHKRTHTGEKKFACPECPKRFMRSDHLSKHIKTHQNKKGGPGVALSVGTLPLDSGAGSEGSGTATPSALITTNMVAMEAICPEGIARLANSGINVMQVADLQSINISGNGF

Target: Sp1 (in 2008 cell nuclear extract) (Homo sapiens) (UniProt P08047)
Assay: EMSA
Conditions: untreated and paclitaxel-treated extracts; supershift with anti-Sp1 PEP2; shift abolished by Sp1 immunodepletion; protein in an extract; protein details: endogenous, 2008 ovarian carcinoma nuclear extract; label: 32P

Sequence: AGGCTCCTGGGTCCCGCCCCCCAAAAGAGGGGACGGGCC (double strand) [CIRE (GADD153 -74 to -35)]
- binding result: binds
